Source: the supplement of paper PMC8728848
The list shows a part of the results.

Tests used:
Experiment in all cases: glycan array binding signal (z-score within array); higher = stronger binding
Conditions in all cases: glycan notation: IUPAC condensed, linker removed
[1] = target: Gal(b1-3)GalNAc(b1-3)Gal(a1-4)Gal(b1-4)Glc
Outline: (§1)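 Glycan array data were curated from 3228 arrays in the Consortium for Functional Glycomics database and kept only where the protein sequence was available. Glycan names were converted to IUPAC-condensed notation, and columns mapping to the same glycan were averaged. The binding signal is a within-array Z-score, averaged across arrays of the same protein sequence at different concentrations or buffers and across linkers. Negative Z-scores can be read as non-binding.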

[2] = target: Gal(b1-3)GalNAc(b1-4)Gal(b1-4)Glc
Outline: as §1

[3] = target: Gal(b1-3)GalNAc(b1-4)[Neu5Ac(a2-3)]Gal(b1-4)Glc
Outline: as §1

[4] = target: Gal(b1-3)GlcNAc
Outline: as §1

[5] = target: Gal(b1-3)GlcNAc(a1-3)Gal(b1-4)GlcNAc
Outline: as §1

[6] = target: Gal(b1-3)GlcNAc(a1-6)Gal(b1-4)GlcNAc
Outline: as §1

[7] = target: Gal(b1-3)GlcNAc(b1-2)Man
Outline: as §1

[8] = target: Gal(b1-3)GlcNAc(b1-2)Man(a1-3)[Gal(b1-3)GlcNAc(b1-2)Man(a1-6)]Man(b1-4)GlcNAc(b1-4)GlcNAc
Outline: as §1

[9] = target: Gal(b1-3)GlcNAc(b1-2)Man(a1-3)[Gal(b1-3)GlcNAc(b1-2)Man(a1-6)]Man(b1-4)GlcNAc(b1-4)[Fuc(a1-6)]GlcNAc
Outline: as §1

[10] = target: Gal(b1-3)GlcNAc(b1-2)Man(a1-3)[GlcNAc(b1-4)][Gal(b1-3)GlcNAc(b1-2)Man(a1-6)]Man(b1-4)GlcNAc(b1-4)GlcNAc
Outline: as §1

[11] = target: Gal(b1-3)GlcNAc(b1-2)[Gal(b1-3)GlcNAc(b1-6)]Man(a1-6)[Gal(b1-3)GlcNAc(b1-2)Man(a1-3)]Man(b1-4)GlcNAc(b1-4)GlcNAc
Outline: as §1

[12] = target: Gal(b1-3)GlcNAc(b1-3)Gal(b1-3)GlcNAc
Outline: as §1

[13] = target: Gal(b1-3)GlcNAc(b1-3)Gal(b1-4)Glc
Outline: as §1

[14] = target: Gal(b1-3)GlcNAc(b1-3)Gal(b1-4)GlcNAc
Outline: as §1

[15] = target: Gal(b1-3)GlcNAc(b1-3)Gal(b1-4)GlcNAc(b1-2)Man(a1-3)[Gal(b1-3)GlcNAc(b1-3)Gal(b1-4)GlcNAc(b1-2)Man(a1-6)]Man(b1-4)GlcNAc(b1-4)GlcNAc
Outline: as §1

[16] = target: Gal(b1-3)GlcNAc(b1-3)Gal(b1-4)GlcNAc(b1-2)[Gal(b1-3)GlcNAc(b1-3)Gal(b1-4)GlcNAc(b1-6)]Man(a1-6)[Gal(b1-3)GlcNAc(b1-3)Gal(b1-4)GlcNAc(b1-2)Man(a1-3)]Man(b1-4)GlcNAc(b1-4)[Fuc(a1-6)]GlcNAc
Outline: as §1

[17] = target: Gal(b1-3)GlcNAc(b1-3)Gal(b1-4)GlcNAc(b1-3)Gal(b1-4)GlcNAc(b1-2)[Gal(b1-3)GlcNAc(b1-3)Gal(b1-4)GlcNAc(b1-3)Gal(b1-4)GlcNAc(b1-6)]Man(a1-6)[Gal(b1-3)GlcNAc(b1-3)Gal(b1-4)GlcNAc(b1-3)Gal(b1-4)GlcNAc(b1-2)Man(a1-3)]Man(b1-4)GlcNAc(b1-4)[Fuc(a1-6)]GlcNAc
Outline: as §1

[18] = target: Gal(b1-3)GlcNAc(b1-3)Gal(b1-4)GlcNAc(b1-6)[Gal(b1-3)GlcNAc(b1-3)]Gal(b1-4)Glc
Outline: as §1

[19] = target: Gal(b1-3)GlcNAc(b1-3)Gal(b1-4)[Fuc(a1-3)]GlcNAc
Outline: as §1

[20] = target: Gal(b1-3)GlcNAc(b1-3)Gal(b1-4)[Fuc(a1-3)]GlcNAc(b1-6)[Gal(b1-3)GlcNAc(b1-3)]Gal(b1-4)Glc
Outline: as §1

[21] = target: Gal(b1-3)GlcNAc(b1-3)GalNAc
Outline: as §1

[22] = target: Gal(b1-3)GlcNAc(b1-6)Gal(b1-4)GlcNAc
Outline: as §1

[23] = target: Gal(b1-3)GlcNAc(b1-6)GalNAc
Outline: as §1

[24] = target: Gal(b1-3)GlcNAc(b1-6)[Gal(b1-3)]GalNAc
Outline: as §1

[25] = target: Gal(b1-3)GlcNAc6S
Outline: as §1

[26] = target: Gal(b1-3)[Fuc(a1-4)]GlcNAc
Outline: as §1

[27] = target: Gal(b1-3)[Fuc(a1-4)]GlcNAc(b1-2)Man
Outline: as §1

[28] = target: Gal(b1-3)[Fuc(a1-4)]GlcNAc(b1-2)Man(a1-3)[Gal(b1-3)[Fuc(a1-4)]GlcNAc(b1-2)Man(a1-6)]Man(b1-4)GlcNAc(b1-4)[Fuc(a1-6)]GlcNAc
Outline: as §1

[29] = target: Gal(b1-3)[Fuc(a1-4)]GlcNAc(b1-3)Gal(b1-3)[Fuc(a1-4)]GlcNAc
Outline: as §1

[30] = target: Gal(b1-3)[Fuc(a1-4)]GlcNAc(b1-3)Gal(b1-4)[Fuc(a1-3)]GlcNAc
Outline: as §1

[31] = target: Gal(b1-3)[Fuc(a1-4)]GlcNAc(b1-6)GalNAc
Outline: as §1

[32] = target: Gal(b1-3)[GlcNAc(b1-6)]GalNAc
Outline: as §1

[33] = target: Gal(b1-3)[Neu5Ac(a2-6)]GalNAc
Outline: as §1

[34] = target: Gal(b1-3)[Neu5Ac(a2-6)]GlcNAc(b1-4)Gal(b1-4)Glc
Outline: as §1

[35] = target: Gal(b1-3)[Neu5Ac(b2-6)]GalNAc
Outline: as §1

[36] = target: Gal(b1-4)Gal
Outline: as §1

[37] = target: Gal(b1-4)GalNAc(a1-3)[Fuc(a1-2)]Gal(b1-4)GlcNAc
Outline: as §1

[38] = target: Gal(b1-4)GalNAc(b1-3)[Fuc(a1-2)]Gal(b1-4)GlcNAc
Outline: as §1

B1: PX14404-bvu-534-26-534 (Bacteroides vulgatus) (protein)
chain: EDPRGKLTPENFFSTQDELNMSIYALYQKVNLSQVYTNMQLPQWQGDDITTNPGSNKQPAAEMDKFAAANNNKGVKDAWNMHYAIVKAANLIIQGASKTPTTQDEINIALGQAKFWRAYAYFTLVRLWGPLPMNLDNVNDDYTKPLSPVEEVYGHIVQDLTEAEAVLPTGYSGSPRFLNGVNVYVTRQAAKSTLAAVYMAMAGWPMNKTEYYAKAAEKAKEVIEGVNRGEYEYKLDKDYKDVYAMSNNYNNETVLGINYSPFVDWAQDSELTSCNQFESLGGWGDAWGEIRFWKEFPDGPRKDATYDPKIRLKDGTLVDWWELKEDGTPVVPEHHPMFSIFSVNWDPASKVNTSAPYDYTKPASQNMCNDHRHRIIRYSEVLLWYAEAKARTGQTDELAFKCLNDVRERAGLEPLTGLSADDLAEAAYKEHGWEVAGYWVALVTRRADQFRMNRLKDTFKERAENTAVEVADGILVKESVEYTNRTWSDNLMYLPYPDMDSQKNPNLVR
In the case of B1, the “glycan array binding signal (z-score)” value [1] is reported as -0.153, the “glycan array binding signal (z-score)” value [2] is reported as 0.463 and the “glycan array binding signal (z-score)” value [3] is reported as -0.231. For the same binder, the “glycan array binding signal (z-score)” value [4] was -0.144, the “glycan array binding signal (z-score)” value [5] was -1.41 and the “glycan array binding signal (z-score)” value [6] was -0.215. For the same binder, the “glycan array binding signal (z-score)” value [7] was 0.164, the “glycan array binding signal (z-score)” value [8] was 1.74 and the “glycan array binding signal (z-score)” value [9] was 0.665. The “glycan array binding signal (z-score)” value [10] was 0.377, the “glycan array binding signal (z-score)” value [11] was 0.645 and the “glycan array binding signal (z-score)” value [12] was -0.525. For the same binder, the “glycan array binding signal (z-score)” value [13] was -0.543, the “glycan array binding signal (z-score)” value [14] was -1.42 and the “glycan array binding signal (z-score)” value [15] was -0.494. For the same binder, the “glycan array binding signal (z-score)” value [16] was 0.929, the “glycan array binding signal (z-score)” value [17] was 0.231 and the “glycan array binding signal (z-score)” value [18] was -0.123. The “glycan array binding signal (z-score)” value [19] was -1.07, the “glycan array binding signal (z-score)” value [20] was -0.291 and the “glycan array binding signal (z-score)” value [21] was -0.621. For the same binder, the “glycan array binding signal (z-score)” value [22] was 0.301, the “glycan array binding signal (z-score)” value [23] was -1.35 and the “glycan array binding signal (z-score)” value [24] was 0.744. The “glycan array binding signal (z-score)” value [25] was -0.497, the “glycan array binding signal (z-score)” value [26] was 0.237 and the “glycan array binding signal (z-score)” value [27] was -0.157. The “glycan array binding signal (z-score)” value [28] was 0.158, the “glycan array binding signal (z-score)” value [29] was -0.127 and the “glycan array binding signal (z-score)” value [30] was 0.687. The “glycan array binding signal (z-score)” value [31] was 0.763, the “glycan array binding signal (z-score)” value [32] was 0.791 and the “glycan array binding signal (z-score)” value [33] was -0.558. For the same binder, the “glycan array binding signal (z-score)” value [34] was 0.099, the “glycan array binding signal (z-score)” value [35] was -1.21 and the “glycan array binding signal (z-score)” value [36] was -1.37. The “glycan array binding signal (z-score)” value [37] was 1.16 and the “glycan array binding signal (z-score)” value [38] was -1.15.
